{"source": "PubChem BioAssay AID256", "about": "(DTP/NCI, 2004)", "tested_on": "CD2F1 mice, L1210 leukemia ip, survival T/C", "assay": "NCI In Vivo Anticancer Drug Screen. Data for tumor model L1210 Leukemia (intraperitoneal) in CD2F1 (CDF1) mice", "details": "higher T/C = longer survival", "how_it_was_run": "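Read-out first: treated-group measurement over vehicle-control measurement, expressed as a ratio. Animals bore a transplanted tumor line and were dosed with compound or vehicle.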", "key": {"[1]": {"details": "T/C endpoint: median survival time, dose: 1.56 mg/kg/injection, schedule: Q01DX009 (ip), vehicle: Klucel (hydroxypropylcellulose) (HPC)"}, "[2]": {"details": "T/C endpoint: median survival time, dose: 25.0 mg/kg/injection, schedule: Q01DX009 (ip), vehicle: Klucel (hydroxypropylcellulose) (HPC)"}, "[3]": {"details": "T/C endpoint: mean survival time, dose: 200.0 mg/kg/injection, schedule: Q01DX009 (ip), vehicle: saline with Tween-80"}}, "note": "The list shows only some results of the screen, not a fair sample: it gathers tests that were run many times, whatever their T/C, doses with no T/C, and many T/C values between a quarter and a half above the control. Other doses and runs of a compound stand elsewhere. T/C: endpoint of the treated group in % of that of the vehicle group. Some entries give survivors of the animals treated and no T/C: the source files T/C as zero there, which appears to mark a toxic dose or a test without result, not a measured value. Some survivor counts are full or nearly so, which does not show that the dose was tolerated: the source hardly ever lists a survival T/C far under the control, and the zero likely stands for such cases as well. Counts of survivors are from the toxicity check (mostly the fifth day) where no day follows; animals may have died later. Schedules are NCI's codes, read here as Q, the interval in days (D) or hours (H), X, the number of doses. Some entries were tested several times; their values stand side by side, smallest first. For survival time, the PubChem record calls one and a half times the control and up active, and a quarter to a half above the control has no call in these data; cut-offs in other NCI protocols can differ. Some T/C values carry the count of animals alive at the toxicity check (mostly the fifth day); without a count, all were alive then.", "data": [{"smiles": "COc1c(C=O)c2c(c(OC)c1OC)-c1ccc(OC)c(=O)cc1[C@@H](NC(C)=O)CC2", "values": [{"measurement": "T/C", "setting": "[1]", "result": "125 and 136 % of control"}, {"measurement": "T/C", "setting": "T/C endpoint: median survival time, dose: 3.12 mg/kg/injection, schedule: Q01DX009 (ip), vehicle: Klucel (hydroxypropylcellulose) (HPC)", "result": "133 and 136 % of control"}, {"measurement": "T/C", "setting": "T/C endpoint: median survival time, dose: 6.25 mg/kg/injection, schedule: Q01DX009 (ip), vehicle: Klucel (hydroxypropylcellulose) (HPC)", "result": "133 and 139 % of control"}, {"measurement": "T/C", "setting": "T/C endpoint: median survival time, dose: 12.5 mg/kg/injection, schedule: Q01DX009 (ip), vehicle: Klucel (hydroxypropylcellulose) (HPC)", "result": "144 % of control [4 of 6 alive]"}, {"measurement": "survivor count", "setting": "[2]", "result": "4 of 6 and 5 of 6"}]}, {"smiles": "FC(F)(F)c1nc2nc(Cl)c(Cl)nc2[nH]1", "values": [{"measurement": "T/C", "setting": "T/C endpoint: mean survival time, dose: 40.0 mg/kg/injection, schedule: Q01DX009 (ip), vehicle: saline with Tween-80", "result": "137 % of control [5 of 6 alive]"}, {"measurement": "T/C", "setting": "T/C endpoint: mean survival time, dose: 50.0 mg/kg/injection, schedule: Q01DX009 (ip), vehicle: saline", "result": "132 % of control"}, {"measurement": "T/C", "setting": "T/C endpoint: median survival time, dose: 100.0 mg/kg/injection, schedule: Q04DX003 (ip), vehicle: saline with Tween-80", "result": "132 % of control [5 of 6 alive]"}, {"measurement": "survivor count", "setting": "T/C endpoint: median survival time, dose: 150.0 mg/kg/injection, schedule: Q04DX003 (ip), vehicle: saline with Tween-80", "result": "3 of 6"}]}, {"smiles": "c1ccc2c(NC3=NCCO3)c3ccccc3nc2c1", "values": [{"measurement": "survivor count", "setting": "T/C endpoint: mean survival time, dose: 50.0 mg/kg/injection, schedule: Q04DX003 (ip), vehicle: saline with Tween-80", "result": "0 of 6"}]}, {"smiles": "C=CCC(Cc1ccccc1)C1=NC(C)(C)CC(C)O1", "note": "(stereo not given)", "values": [{"measurement": "survivor count", "setting": "T/C endpoint: mean survival time, dose: 400.0 mg/kg/injection, schedule: Q01DX001 (ip), vehicle: saline with Tween-80", "result": "0 of 6"}]}, {"smiles": "CC(=O)SCCC(=O)O", "values": [{"measurement": "survivor count", "setting": "T/C endpoint: mean survival time, dose: 100.0 mg/kg/injection, schedule: Q04DX003 (ip), vehicle: saline", "result": "0 of 6"}]}, {"smiles": "O=C1CC=C2C3CC4N(CCC45c4ccccc4N1C25)C/C3=C\\CBr", "note": "(stereo not given)", "values": [{"measurement": "survivor count", "setting": "T/C endpoint: mean survival time, dose: 75.0 mg/kg/injection, schedule: Q01DX001 (ip), vehicle: other", "result": "0 of 6"}, {"measurement": "survivor count", "setting": "T/C endpoint: mean survival time, dose: 150.0 mg/kg/injection, schedule: Q01DX001 (ip), vehicle: other", "result": "0 of 6"}, {"measurement": "survivor count", "setting": "T/C endpoint: mean survival time, dose: 300.0 mg/kg/injection, schedule: Q01DX001 (ip), vehicle: other", "result": "0 of 6"}]}, {"smiles": "CC(C)(C)[Si](C)(C)Oc1ncc(F)c(O[Si](C)(C)C(C)(C)C)n1", "values": [{"measurement": "survivor count", "setting": "T/C endpoint: mean survival time, dose: 40.0 mg/kg/injection, schedule: Q01DX009 (ip), vehicle: distilled water + Tween-80", "result": "3 of 6"}, {"measurement": "survivor count", "setting": "T/C endpoint: mean survival time, dose: 80.0 mg/kg/injection, schedule: Q01DX009 (ip), vehicle: distilled water + Tween-80", "result": "4 of 6"}]}, {"smiles": "CCC(=O)OCCn1c2ccccc2c2c(C)c3cnccc3c(C)c21", "values": [{"measurement": "T/C", "setting": "[3]", "result": "141 % of control"}]}, {"smiles": "CN=C(NC)c1ccc(NC(=O)/C=C\\c2ccc(/C=C/C(=O)Nc3ccc(C(=NC)NC)cc3)cc2)cc1", "values": [{"measurement": "T/C", "setting": "[1]", "result": "127 % of control"}, {"measurement": "survivor count", "setting": "T/C endpoint: median survival time, dose: 24.0 mg/kg/injection, schedule: Q01DX009 (ip), vehicle: Klucel (hydroxypropylcellulose) (HPC)", "result": "0 of 6"}, {"measurement": "survivor count", "setting": "[2]", "result": "0 of 6"}]}, {"smiles": "O=C(/C=C/C(=O)OCCCl)OCCCl", "values": [{"measurement": "survivor count", "setting": "T/C endpoint: mean survival time, dose: 400.0 mg/kg/injection, schedule: Q04DX003 (ip), vehicle: saline with Tween-80", "result": "0 of 6"}]}, {"smiles": "CCc1ccc(O)cc1O", "values": [{"measurement": "survivor count", "setting": "T/C endpoint: mean survival time, dose: 200.0 mg/kg/injection, schedule: Q04DX003 (ip), vehicle: saline", "result": "2 of 6"}, {"measurement": "survivor count", "setting": "T/C endpoint: mean survival time, dose: 400.0 mg/kg/injection, schedule: Q04DX003 (ip), vehicle: saline", "result": "0 of 6"}]}, {"smiles": "O=C1NCCN1c1ncc([N+](=O)[O-])s1", "values": [{"measurement": "survivor count", "setting": "[3]", "result": "3 of 6"}]}]}
